Results are given in words; binding and its absence hold for the method and conditions named. Some results given as binding are weak or reduced against the parent protein; the word gives no strength.
Biological target: recombinant mouse CCR5 (MyBioSource) (mouse) (UniProt P51682)
Assay: competition ELISA: plate coated with mrCCR5, mrCCL4 titrated against 100 nM hrNAMPT(1); bound hrNAMPT(1) detected with a biotinylated anti-NAMPT antibody, BSA deducted

By UniProt entry, the sequences of proteins in these tests, tags left out.
UniProt P51682: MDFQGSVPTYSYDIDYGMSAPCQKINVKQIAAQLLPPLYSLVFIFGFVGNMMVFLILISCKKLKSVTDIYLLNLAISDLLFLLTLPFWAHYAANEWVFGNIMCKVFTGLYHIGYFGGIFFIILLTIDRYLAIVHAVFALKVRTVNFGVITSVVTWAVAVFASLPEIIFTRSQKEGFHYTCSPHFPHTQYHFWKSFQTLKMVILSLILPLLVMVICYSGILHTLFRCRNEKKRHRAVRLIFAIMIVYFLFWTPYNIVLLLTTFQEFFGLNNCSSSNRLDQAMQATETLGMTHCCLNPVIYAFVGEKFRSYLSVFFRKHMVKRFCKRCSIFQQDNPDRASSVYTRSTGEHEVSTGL

B1: recombinant murine CCL4/MIP-1beta (PeproTech) (ligand, mouse, UniProt P14097 24-92, looked up)
chain: APMGSDPPTSCCFSYTSRQLHRSFVMDYYETSSLCSKPAVVFLTKRGRQICANPSEPWVTEYMSDLELN
In the case of B1, the binding is reported as “binds”.

Reference: patent US20240041922A1, “METHODS AND COMPOSITIONS” (Monash University, priority 2020, published 2024)
